Measurements: publication PMC6092110
These are yes or no findings as the source states them, for the method shown. For some of these results: In cells and extracts the contact can be indirect. Some results given as binding are weak or reduced against the parent protein; the word gives no strength.

Chains of the proteins cited; added tags and fusions are not shown. Residues count along the entry.
UniProt Q9QUN9, residues 23-349: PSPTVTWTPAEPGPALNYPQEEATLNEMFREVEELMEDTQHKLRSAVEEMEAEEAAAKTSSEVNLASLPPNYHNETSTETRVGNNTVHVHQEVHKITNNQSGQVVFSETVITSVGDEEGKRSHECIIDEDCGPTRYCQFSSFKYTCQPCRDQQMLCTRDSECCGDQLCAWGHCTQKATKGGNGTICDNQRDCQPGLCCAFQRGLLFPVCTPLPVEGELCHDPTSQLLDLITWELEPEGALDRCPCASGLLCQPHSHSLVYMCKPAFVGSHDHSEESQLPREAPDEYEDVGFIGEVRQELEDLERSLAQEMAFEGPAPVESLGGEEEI
UniProt P56485: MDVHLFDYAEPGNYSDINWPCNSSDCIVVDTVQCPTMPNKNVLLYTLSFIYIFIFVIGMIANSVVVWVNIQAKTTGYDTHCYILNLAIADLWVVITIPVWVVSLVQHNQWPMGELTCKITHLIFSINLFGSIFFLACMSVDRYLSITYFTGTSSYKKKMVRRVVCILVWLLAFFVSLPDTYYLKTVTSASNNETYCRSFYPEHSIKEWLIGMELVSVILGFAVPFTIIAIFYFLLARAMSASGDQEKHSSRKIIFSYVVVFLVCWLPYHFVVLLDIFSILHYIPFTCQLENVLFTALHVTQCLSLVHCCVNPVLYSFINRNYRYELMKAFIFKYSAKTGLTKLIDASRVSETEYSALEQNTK
UniProt P70658: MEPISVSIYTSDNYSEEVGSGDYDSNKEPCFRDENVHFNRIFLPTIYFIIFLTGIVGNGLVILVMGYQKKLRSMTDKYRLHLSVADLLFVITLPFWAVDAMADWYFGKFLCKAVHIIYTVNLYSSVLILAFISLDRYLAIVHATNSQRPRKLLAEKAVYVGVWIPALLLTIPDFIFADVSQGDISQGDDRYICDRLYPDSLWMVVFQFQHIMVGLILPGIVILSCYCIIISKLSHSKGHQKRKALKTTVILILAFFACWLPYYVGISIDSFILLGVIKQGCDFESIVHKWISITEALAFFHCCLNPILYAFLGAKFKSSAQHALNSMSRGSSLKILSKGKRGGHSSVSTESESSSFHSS

Columns and labels:
Dkk3-His tagged = Dkk3-His tagged (UniProt Q9QUN9); assay: pull-down; His-tag pull-down (MagneHis Protein Purification System, nickel magnetic beads); Sca-1+ cells treated with Dkk3-His tagged, Dkk3-His pulled down from the cell lysate, receptors detected by immunoblot; only the target purified
[1] = molecular target: CXCR7 (C-X-C chemokine receptor type 7), endogenous in Sca-1+ cells (mouse (endogenous in Sca-1+ vascular progenitor cells)) (UniProt P56485); assay: co-IP; Sca-1+ VPCs treated with 25 ng/mL of Dkk3 for 3 hours; lysate precleared on control agarose resin; CXCR7 precipitated with anti-CXCR7 antibody (IgG control antibody beside it); immunoblot probed with Dkk3 antibody; only the binder purified
[2] = molecular target: CXCR4 (HA tagged) overexpressed in HEK 293T cells (UniProt P70658); assay: ELISA; saturation binding: lysates of HEK 293T cells overexpressing the receptor loaded onto high-affinity-binding ELISA plates coated with anti-HA antibody; serial dilutions of AP-conjugated ligand (or AP alone); AP activity read; Scatchard analysis; n=3; only the binder purified

Row | Substance | binding (Dkk3-His tagged) | further results
1 | CXCR7 (C-X-C chemokine receptor type 7), endogenous in Sca-1+ cells (from UniProt P56485 1-362) | binds | 
2 | CXCR4 (C-X-C chemokine receptor type 4), endogenous in Sca-1+ cells (from UniProt P70658 1-359) | no binding | 
3 | Dkk3 (dickkopf-3) (from UniProt Q9QUN9 23-349) (ligand) |  | binding [1]: binds
4 | Dkk3-AP (Dkk3 conjugated with alkaline phosphatase) (from UniProt Q9QUN9 23-349) (ligand) |  | binding [2]: no binding
